Data source: PubChem BioAssay AID1259326 (Drosophila RNAi Screening Center, 2017)

Purpose: 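RNAi screen for genes modifying zinc chloride toxicity in fly cells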
System: Drosophila S2R+ cells
Reagents: long dsRNA against Drosophila genes
Timing: about 5 days (4 days of RNAi, then 1 day of zinc)
Challenge: zinc chloride added to 15 mM final for one day
Detection: 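Cellular ATP measured by luciferase light as a viable-cell proxy, after 4 days of RNAi and 1 day in 15 mM zinc chloride; replicate z-scores averaged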
Scale: averaged z-score: higher = more ATP than other wells, i.e. more surviving cells, after zinc; ATP luminescence: higher = more ATP, i.e. more surviving cells
Call rule: 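Called active when the averaged z-score lies outside -1.5 to 1.5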
The whole screen tested 573 reagents; below is a random part of them. Over the whole deposit, 39 (6.8%) are marked active. 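All actives have raised ATP, meaning more surviving cells; in these data active calls sit at averaged z-scores near 1.5 or above.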 Raw values vary from plate to plate and are shown uncorrected. Reagent sequences are not shown. Not stated in the record: the amount of reagent.

| gene | amplicon | averaged z-score | ATP luminescence, replicate 1 | ATP luminescence, replicate 2 | Outcome |
| --- | --- | --- | --- | --- | --- |
| CG18324 | DRSC06721 | -0.439 | 80167 | 63684 | inactive |
| CG18324 | DRSC26600 | 0.00759 | 80218 | 75827 | inactive |
| CG18324 | DRSC41177 | -0.103 | 69327 | 78143 | inactive |
| Rpt3R | DRSC16501 | -0.147 | 67423 | 76668 | inactive |
| Rpt3R | DRSC25067 | 0.0154 | 97456 | 83855 | inactive |
| Rpt3R | DRSC36329 | -0.381 | 78606 | 58958 | inactive |
| CCT3 | DRSC16602 | 0.14 | 93736 | 85244 | inactive |
| CCT3 | DRSC40938 | 0.415 | 99569 | 65828 | inactive |
| CCT3 | DRSC41164 | 0.563 | 77937 | 96189 | inactive |
| CG42233 | DRSC15416 | -0.0834 | 66154 | 77714 | inactive |
| CG42233 | DRSC24948 | 0.595 | 1.06e5 | 91677 | inactive |
| CG42233 | DRSC26880 | -0.315 | 79296 | 66669 | inactive |
| Rala | DRSC27866 | -0.316 | 77286 | 92346 | inactive |
| Rala | DRSC41239 | -0.144 | 71368 | 73024 | inactive |
| Rala | DRSC41240 | 0.342 | 84180 | 79400 | inactive |
| Lon | DRSC11049 | -0.0269 | 99843 | 72826 | inactive |
| Lon | DRSC26015 | 0.421 | 89292 | 76576 | inactive |
| Lon | DRSC41205 | 0.489 | 79155 | 89258 | inactive |
| DIP2 | DRSC08582 | -0.224 | 87972 | 78537 | inactive |
| DIP2 | DRSC36466 | -0.379 | 77079 | 62758 | inactive |
| DIP2 | DRSC41216 | 0.159 | 75947 | 81046 | inactive |
| Ggamma1 | DRSC07435 | -0.513 | 71777 | 94044 | inactive |
| Ggamma1 | DRSC41222 | -0.576 | 53704 | 74215 | inactive |
| Rab1 | DRSC29851 | -0.391 | 88280 | 70047 | inactive |
| Rab1 | DRSC33339 | -0.439 | 68401 | 67543 | inactive |
| Rab1 | DRSC33340 | 0.105 | 72054 | 74060 | inactive |
| Rpt3 | DRSC23412 | 0.184 | 97561 | 86651 | inactive |
| Rpt3 | DRSC32208 | -0.0536 | 90665 | 47120 | inactive |
| Rpt3 | DRSC32209 | 0.506 | 79824 | 90322 | inactive |
